In the supplement of paper PMC10849652:
Some of the results follow.

Chains of the proteins cited; added tags and fusions are not shown. Lines headed by an entry give the natural chain unless they say otherwise; changes in a name come on top.
UniProt O75131: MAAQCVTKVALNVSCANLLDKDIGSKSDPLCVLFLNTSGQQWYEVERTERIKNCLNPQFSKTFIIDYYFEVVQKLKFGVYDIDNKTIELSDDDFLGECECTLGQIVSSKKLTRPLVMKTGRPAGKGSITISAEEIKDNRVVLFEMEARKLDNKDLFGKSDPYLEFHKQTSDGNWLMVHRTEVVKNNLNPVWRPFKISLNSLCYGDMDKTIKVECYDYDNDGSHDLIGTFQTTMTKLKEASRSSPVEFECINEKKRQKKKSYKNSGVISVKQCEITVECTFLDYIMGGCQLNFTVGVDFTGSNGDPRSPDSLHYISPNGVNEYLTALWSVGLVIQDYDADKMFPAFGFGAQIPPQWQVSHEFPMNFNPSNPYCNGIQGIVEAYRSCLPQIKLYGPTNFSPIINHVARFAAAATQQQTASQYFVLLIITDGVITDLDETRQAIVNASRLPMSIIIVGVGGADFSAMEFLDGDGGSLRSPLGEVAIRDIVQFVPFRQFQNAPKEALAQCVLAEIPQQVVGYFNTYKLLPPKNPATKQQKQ
UniProt Q10570: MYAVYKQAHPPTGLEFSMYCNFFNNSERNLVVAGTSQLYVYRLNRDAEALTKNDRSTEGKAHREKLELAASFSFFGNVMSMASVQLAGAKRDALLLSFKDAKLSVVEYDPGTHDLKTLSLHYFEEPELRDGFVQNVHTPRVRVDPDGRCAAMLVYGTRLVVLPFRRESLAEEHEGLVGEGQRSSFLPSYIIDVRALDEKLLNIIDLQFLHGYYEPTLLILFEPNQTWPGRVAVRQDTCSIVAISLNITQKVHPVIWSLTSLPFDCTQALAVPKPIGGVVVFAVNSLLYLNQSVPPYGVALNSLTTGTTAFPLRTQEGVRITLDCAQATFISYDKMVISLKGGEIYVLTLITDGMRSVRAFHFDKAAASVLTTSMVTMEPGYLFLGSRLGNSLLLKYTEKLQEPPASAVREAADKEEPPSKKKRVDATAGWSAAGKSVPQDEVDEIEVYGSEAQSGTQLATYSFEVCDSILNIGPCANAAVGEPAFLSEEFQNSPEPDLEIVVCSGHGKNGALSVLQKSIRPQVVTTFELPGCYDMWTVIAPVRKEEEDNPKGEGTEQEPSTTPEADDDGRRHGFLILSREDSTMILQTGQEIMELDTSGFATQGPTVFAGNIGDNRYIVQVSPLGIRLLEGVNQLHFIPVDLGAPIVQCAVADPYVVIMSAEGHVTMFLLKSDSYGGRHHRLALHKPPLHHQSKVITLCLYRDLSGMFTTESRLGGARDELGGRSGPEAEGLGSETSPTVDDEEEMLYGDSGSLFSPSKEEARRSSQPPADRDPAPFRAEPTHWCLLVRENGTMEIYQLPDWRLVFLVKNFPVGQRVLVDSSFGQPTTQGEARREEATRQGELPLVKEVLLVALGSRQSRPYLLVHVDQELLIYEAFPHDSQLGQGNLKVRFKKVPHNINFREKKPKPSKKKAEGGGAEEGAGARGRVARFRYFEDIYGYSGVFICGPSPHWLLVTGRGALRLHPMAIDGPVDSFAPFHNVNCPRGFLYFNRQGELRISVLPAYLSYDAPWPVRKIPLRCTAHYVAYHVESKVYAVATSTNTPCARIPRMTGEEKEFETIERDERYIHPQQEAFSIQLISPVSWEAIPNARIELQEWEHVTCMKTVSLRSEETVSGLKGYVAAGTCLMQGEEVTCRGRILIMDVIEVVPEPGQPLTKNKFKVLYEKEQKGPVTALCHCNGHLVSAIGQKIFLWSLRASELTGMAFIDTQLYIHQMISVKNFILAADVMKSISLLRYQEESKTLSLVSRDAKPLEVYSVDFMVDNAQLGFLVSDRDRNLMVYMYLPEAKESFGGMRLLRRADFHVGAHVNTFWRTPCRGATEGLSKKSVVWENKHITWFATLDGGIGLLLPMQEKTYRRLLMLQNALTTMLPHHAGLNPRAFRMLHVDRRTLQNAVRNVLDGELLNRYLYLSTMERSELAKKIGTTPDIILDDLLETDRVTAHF
UniProt Q49B96: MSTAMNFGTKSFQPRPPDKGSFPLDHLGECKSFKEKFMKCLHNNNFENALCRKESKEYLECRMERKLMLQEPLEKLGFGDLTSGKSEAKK
UniProt Q8WTW3: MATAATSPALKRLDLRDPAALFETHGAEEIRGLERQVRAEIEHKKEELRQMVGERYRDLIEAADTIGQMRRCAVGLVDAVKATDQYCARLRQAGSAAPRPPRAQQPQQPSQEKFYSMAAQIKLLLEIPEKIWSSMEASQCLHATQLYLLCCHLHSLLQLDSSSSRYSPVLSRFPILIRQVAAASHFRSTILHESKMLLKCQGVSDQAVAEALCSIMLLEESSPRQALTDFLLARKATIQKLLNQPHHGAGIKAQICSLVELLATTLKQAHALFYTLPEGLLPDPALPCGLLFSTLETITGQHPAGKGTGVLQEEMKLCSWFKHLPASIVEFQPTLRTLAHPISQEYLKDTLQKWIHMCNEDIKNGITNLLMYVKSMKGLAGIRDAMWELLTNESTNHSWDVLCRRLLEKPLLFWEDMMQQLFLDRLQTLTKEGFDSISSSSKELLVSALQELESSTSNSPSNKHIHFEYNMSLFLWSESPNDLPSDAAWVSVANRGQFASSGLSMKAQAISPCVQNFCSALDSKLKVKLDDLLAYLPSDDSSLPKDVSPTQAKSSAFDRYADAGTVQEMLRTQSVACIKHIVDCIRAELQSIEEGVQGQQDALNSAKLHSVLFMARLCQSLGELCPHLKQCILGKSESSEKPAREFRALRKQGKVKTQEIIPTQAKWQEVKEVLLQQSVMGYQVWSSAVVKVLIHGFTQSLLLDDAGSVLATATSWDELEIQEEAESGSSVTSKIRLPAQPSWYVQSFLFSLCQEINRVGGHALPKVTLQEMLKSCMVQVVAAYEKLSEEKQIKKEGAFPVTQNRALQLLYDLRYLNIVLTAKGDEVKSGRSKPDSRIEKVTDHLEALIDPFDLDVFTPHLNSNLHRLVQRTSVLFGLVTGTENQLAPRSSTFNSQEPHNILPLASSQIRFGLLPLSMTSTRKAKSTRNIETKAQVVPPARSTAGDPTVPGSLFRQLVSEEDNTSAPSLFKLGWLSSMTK
UniProt Q86X83, whole entry, looked up: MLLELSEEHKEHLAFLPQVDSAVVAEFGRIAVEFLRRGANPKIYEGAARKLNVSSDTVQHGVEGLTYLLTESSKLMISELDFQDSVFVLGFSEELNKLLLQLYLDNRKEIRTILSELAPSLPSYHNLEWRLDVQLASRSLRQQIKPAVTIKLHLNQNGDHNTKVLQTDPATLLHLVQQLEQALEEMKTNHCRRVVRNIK
UniProt P51911: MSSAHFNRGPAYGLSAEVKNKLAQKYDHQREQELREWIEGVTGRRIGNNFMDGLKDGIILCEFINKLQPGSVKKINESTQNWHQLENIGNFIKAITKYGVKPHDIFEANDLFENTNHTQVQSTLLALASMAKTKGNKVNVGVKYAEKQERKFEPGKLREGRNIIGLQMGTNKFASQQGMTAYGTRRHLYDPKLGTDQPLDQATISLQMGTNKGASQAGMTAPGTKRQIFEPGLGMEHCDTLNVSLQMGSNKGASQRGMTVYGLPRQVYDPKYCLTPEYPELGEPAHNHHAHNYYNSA
UniProt Q96BR5: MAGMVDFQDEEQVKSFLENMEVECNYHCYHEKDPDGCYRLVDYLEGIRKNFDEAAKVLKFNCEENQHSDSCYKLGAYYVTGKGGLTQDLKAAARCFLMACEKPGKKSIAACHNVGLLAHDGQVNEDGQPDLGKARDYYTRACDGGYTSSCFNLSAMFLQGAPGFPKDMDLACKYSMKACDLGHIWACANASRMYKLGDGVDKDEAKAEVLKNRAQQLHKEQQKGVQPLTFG
UniProt P35606: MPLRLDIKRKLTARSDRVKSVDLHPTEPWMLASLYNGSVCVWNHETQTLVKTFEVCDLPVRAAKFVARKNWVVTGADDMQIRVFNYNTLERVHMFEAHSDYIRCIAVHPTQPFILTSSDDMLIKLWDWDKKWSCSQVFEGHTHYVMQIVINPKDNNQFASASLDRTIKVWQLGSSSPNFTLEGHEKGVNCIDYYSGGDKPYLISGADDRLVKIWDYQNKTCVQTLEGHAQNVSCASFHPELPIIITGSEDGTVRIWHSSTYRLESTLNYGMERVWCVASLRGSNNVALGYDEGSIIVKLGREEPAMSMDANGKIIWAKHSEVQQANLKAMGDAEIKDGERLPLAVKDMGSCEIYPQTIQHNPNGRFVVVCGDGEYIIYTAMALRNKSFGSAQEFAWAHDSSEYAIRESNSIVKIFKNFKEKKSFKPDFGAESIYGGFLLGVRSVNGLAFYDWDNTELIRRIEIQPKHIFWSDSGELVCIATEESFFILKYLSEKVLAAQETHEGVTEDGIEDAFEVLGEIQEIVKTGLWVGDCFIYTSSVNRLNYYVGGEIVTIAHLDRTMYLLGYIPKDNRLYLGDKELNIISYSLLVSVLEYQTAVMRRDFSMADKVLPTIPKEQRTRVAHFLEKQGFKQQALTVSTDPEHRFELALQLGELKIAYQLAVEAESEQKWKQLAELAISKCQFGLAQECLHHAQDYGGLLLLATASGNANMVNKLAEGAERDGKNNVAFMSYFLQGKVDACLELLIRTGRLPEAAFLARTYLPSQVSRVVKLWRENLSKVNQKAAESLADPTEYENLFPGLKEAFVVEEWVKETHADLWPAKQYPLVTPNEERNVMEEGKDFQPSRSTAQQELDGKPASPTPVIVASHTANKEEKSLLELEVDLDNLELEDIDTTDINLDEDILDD
UniProt P12074, whole entry, looked up: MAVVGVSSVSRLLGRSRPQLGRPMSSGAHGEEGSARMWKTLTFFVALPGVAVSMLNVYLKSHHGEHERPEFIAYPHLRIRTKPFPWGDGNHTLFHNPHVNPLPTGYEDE
UniProt Q16630, whole entry, looked up: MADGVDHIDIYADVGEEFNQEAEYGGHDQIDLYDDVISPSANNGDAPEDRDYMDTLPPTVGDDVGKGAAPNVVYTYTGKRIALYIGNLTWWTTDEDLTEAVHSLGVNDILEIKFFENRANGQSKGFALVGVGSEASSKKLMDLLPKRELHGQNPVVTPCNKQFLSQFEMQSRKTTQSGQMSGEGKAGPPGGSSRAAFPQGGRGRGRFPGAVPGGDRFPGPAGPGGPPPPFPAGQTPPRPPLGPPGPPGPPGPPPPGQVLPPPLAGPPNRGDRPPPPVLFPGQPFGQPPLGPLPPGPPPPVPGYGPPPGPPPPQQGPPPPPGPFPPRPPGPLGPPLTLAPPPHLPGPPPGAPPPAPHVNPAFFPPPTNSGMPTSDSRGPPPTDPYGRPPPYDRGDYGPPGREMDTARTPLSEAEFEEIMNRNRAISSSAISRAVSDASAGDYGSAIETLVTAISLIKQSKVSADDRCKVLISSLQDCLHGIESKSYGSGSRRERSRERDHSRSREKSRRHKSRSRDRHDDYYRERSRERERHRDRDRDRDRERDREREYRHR
UniProt P53621: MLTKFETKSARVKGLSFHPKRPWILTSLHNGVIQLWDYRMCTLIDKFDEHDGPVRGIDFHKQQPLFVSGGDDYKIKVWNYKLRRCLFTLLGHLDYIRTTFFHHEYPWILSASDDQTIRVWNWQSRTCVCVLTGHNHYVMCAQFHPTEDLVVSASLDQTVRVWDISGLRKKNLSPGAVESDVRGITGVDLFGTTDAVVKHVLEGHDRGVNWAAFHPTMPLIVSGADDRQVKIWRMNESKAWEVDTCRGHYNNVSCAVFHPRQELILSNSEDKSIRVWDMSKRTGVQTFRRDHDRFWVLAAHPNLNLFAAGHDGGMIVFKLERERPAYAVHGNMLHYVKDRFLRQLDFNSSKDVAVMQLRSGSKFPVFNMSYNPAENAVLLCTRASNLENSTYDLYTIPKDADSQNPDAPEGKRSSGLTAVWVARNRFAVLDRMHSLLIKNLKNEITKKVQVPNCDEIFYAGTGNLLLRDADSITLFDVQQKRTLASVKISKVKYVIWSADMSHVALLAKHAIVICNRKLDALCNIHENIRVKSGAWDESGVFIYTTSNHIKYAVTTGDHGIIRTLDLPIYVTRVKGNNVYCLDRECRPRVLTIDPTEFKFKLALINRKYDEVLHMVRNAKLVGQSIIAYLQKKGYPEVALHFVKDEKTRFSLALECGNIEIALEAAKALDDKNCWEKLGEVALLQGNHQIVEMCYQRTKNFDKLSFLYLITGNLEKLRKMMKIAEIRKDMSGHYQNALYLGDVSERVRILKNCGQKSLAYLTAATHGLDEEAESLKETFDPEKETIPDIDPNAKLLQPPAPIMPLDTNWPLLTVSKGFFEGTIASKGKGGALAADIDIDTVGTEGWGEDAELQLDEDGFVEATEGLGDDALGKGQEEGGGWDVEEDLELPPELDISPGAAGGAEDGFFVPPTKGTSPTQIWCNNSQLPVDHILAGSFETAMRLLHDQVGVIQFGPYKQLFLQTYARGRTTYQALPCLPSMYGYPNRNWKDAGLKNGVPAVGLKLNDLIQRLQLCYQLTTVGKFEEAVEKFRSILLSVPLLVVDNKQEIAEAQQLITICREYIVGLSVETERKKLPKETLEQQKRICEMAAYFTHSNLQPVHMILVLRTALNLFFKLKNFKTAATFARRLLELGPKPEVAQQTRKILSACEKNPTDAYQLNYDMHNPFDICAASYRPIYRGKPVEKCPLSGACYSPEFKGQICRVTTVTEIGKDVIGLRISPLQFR

What was measured:
Experiment in all cases: log2 fold change, soluble protein after heating vs DMSO (PISA); higher = thermal stabilisation; K562 lysate, 10 uM; active = over 0.2 and 3.5 SD of the protein, either way, in both replicates (recomputed)
alvocidib = compound: CN1CC[C@H](c2c(O)cc(O)c3c(=O)cc(-c4ccccc4Cl)oc23)[C@H](O)C1 [alvocidib]
Method in brief: (§1)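 K562 pellets were dounce-homogenised in PBS pH 7.4 with 1 mM MgCl2, and the crude extract at 1 mg/mL protein was treated with 10 μM compound for 30 min. Aliquots were heated for 3 min across 48°C-58°C, pooled, and brought to 0.5% NP-40 at 4°C; soluble protein was the supernatant after 21,000xg for 90 min. Soluble protein was quantified by TMTpro 16plex LC-MS/MS with channel sums equalised, and reported as log2 fold change in thermal stability against DMSO controls, with values from duplicates.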

Tubastatin A = compound: CN1CCc2c(c3ccccc3n2Cc2ccc(C(=O)NO)cc2)C1 [Tubastatin A]
Method in brief: as §1

[1] = compound: CNC(=O)C1=CC=CC=C1NC2=NC(=NC=C2Cl)NC3=C(C=C(C=C3)N4CCOCC4)OC
Method in brief: as §1

defactinib = compound: CNC(=O)c1ccc(Nc2ncc(C(F)(F)F)c(NCc3nccnc3N(C)S(C)(=O)=O)n2)cc1 [defactinib]
Method in brief: as §1

[2] = compound: CNc1nc(-c2ccc3c(N)n[nH]c3c2)cc(N2C[C@@H](C(=O)NC3CCCCC3)CC[C@H]2C)n1
Method in brief: as §1

encorafenib = compound: COC(=O)N[C@@H](C)CNc1nccc(-c2cn(C(C)C)nc2-c2cc(Cl)cc(NS(C)(=O)=O)c2F)n1 [encorafenib]
Method in brief: as §1

[3] = compound: COC(=O)[C@H](CCSC)NC(=O)C1=C(C=C(C=C1)NC[C@H](CS)N)C2=CC=CC=C2
Method in brief: as §1

alisertib = compound: COc1cc(Nc2ncc3c(n2)-c2ccc(Cl)cc2C(c2c(F)cccc2OC)=NC3)ccc1C(=O)O [alisertib]
Method in brief: as §1

[4] = compound: COc1cc2nc(-c3cc(F)ccc3O)nc(N[C@@H]3CNC[C@H]3C(C)(C)O)c2cc1OC
Method in brief: as §1

gefitinib = compound: COc1cc2ncnc(Nc3ccc(F)c(Cl)c3)c2cc1OCCCN1CCOCC1 [gefitinib]
Method in brief: as §1

lapatinib = compound: CS(=O)(=O)CCNCc1ccc(-c2ccc3ncnc(Nc4ccc(OCc5cccc(F)c5)c(Cl)c4)c3c2)o1 [lapatinib]
Method in brief: as §1

pictilisib = compound: CS(=O)(=O)N1CCN(Cc2cc3nc(-c4cccc5[nH]ncc45)nc(N4CCOCC4)c3s2)CC1 [pictilisib]
Method in brief: as §1

crizotinib = compound: C[C@@H](Oc1cc(-c2cnn(C3CCNCC3)c2)cnc1N)c1c(Cl)ccc(F)c1Cl [crizotinib]
Method in brief: as §1

[5] = compound: C[C@H](C1=CC=C(C=C1)C(=O)NC2=C3C=CNC3=NC=C2)N
Method in brief: as §1

duvelisib = compound: C[C@H](Nc1ncnc2nc[nH]c12)c1cc2cccc(Cl)c2c(=O)n1-c1ccccc1 [duvelisib]
Method in brief: as §1

gandotinib = compound: Cc1cc(Nc2cc(CN3CCOCC3)c3nc(C)c(Cc4ccc(Cl)cc4F)n3n2)n[nH]1 [gandotinib]
Method in brief: as §1

tozasertib = compound: Cc1cc(Nc2cc(N3CCN(C)CC3)nc(Sc3ccc(NC(=O)C4CC4)cc3)n2)n[nH]1 [tozasertib]
Method in brief: as §1

doramapimod = compound: Cc1ccc(-n2nc(C(C)(C)C)cc2NC(=O)Nc2ccc(OCCN3CCOCC3)c3ccccc23)cc1 [doramapimod]
Method in brief: as §1

bafetinib = compound: Cc1ccc(NC(=O)c2ccc(CN3CC[C@H](N(C)C)C3)c(C(F)(F)F)c2)cc1Nc1nccc(-c2cncnc2)n1 [bafetinib]
Method in brief: as §1

[6] = compound: Cc1cccc(CC(=O)N2CCc3c2ccc(-c2cn(C)c4ncnc(N)c24)c3F)n1
Method in brief: as §1

Target | log2 fold change (alvocidib) | log2 fold change (Tubastatin A) | log2 fold change [1] | log2 fold change (defactinib) | log2 fold change [2] | log2 fold change (encorafenib) | log2 fold change [3] | log2 fold change (alisertib) | log2 fold change [4] | log2 fold change (gefitinib) | log2 fold change (lapatinib) | log2 fold change (pictilisib) | log2 fold change (crizotinib) | log2 fold change [5] | log2 fold change (duvelisib) | log2 fold change (gandotinib) | log2 fold change (tozasertib) | log2 fold change (doramapimod) | log2 fold change (bafetinib) | log2 fold change [6]
COPS4 (UniProt Q9BT78) | inactive: 0.018 | inactive: -0.006 | inactive: 0.001 | inactive: 0.002 | inactive: 0.003 | inactive: -0.019 | inactive: -0.033 | inactive: -0.007 | inactive: -0.012 | inactive: -0.033 | inactive: -0.005 | inactive: -0.039 | inactive: 0.052 | inactive: 0.037 | inactive: -0.005 | inactive: -0.081 | inactive: 0.006 | inactive: -0.036 | inactive: 0.034 | inactive: -0.099
CPNE3 (UniProt O75131) | inactive: -0.081 | inactive: -0.069 | inactive: -0.001 | inactive: 0.045 | inactive: 0.002 | inactive: 0.029 | inactive: -0.037 | inactive: -0.022 | inactive: -0.016 | inactive: 0.005 | inactive: 0.024 | inactive: 0.005 | inactive: -0.029 | inactive: -0.099 | inactive: 0.028 | inactive: 0.074 | inactive: 0.014 | inactive: 0.014 | inactive: 0.007 | inactive: 0.089
CPSF1 (UniProt Q10570) | inactive: -0.015 | inactive: -0.066 | inactive: 0 | inactive: -0.012 | inactive: -0.016 | inactive: 0.041 | inactive: 0.043 | inactive: -0.003 | inactive: -0.026 | inactive: -0.013 | inactive: 0.021 | inactive: -0.036 | inactive: 0.001 | inactive: -0.046 | inactive: -0.004 | inactive: 0.031 | inactive: -0.007 | inactive: -0.005 | inactive: -0.01 | inactive: 0.027
COX19 (UniProt Q49B96) | inactive: -0.056 | inactive: 0.06 | inactive: 0.032 | inactive: 0 | inactive: 0.047 | inactive: 0.001 | inactive: -0.066 | inactive: -0.015 | inactive: -0.013 | inactive: -0.029 | inactive: -0.062 | inactive: -0.035 | inactive: 0.051 | inactive: -0.086 | inactive: -0.003 | inactive: 0.016 | inactive: 0 | inactive: -0.005 | inactive: 0.047 | inactive: -0.044
COG1 (UniProt Q8WTW3) | inactive: 0.014 | inactive: -0.107 | inactive: 0.026 | inactive: 0.037 | inactive: 0.017 | inactive: -0.015 | inactive: 0.038 | inactive: -0.013 | inactive: -0.027 | inactive: 0.049 | inactive: 0.005 | inactive: -0.003 | inactive: -0.079 | inactive: -0.033 | inactive: 0.013 | inactive: -0.183 | inactive: 0.012 | inactive: 0.033 | inactive: -0.064 | inactive: 0.013
COMMD2 (UniProt Q86X83) | inactive: -0.037 | inactive: -0.033 | inactive: 0.046 | inactive: -0.06 | inactive: -0.016 | inactive: 0.013 | inactive: -0.048 | inactive: -0.041 | inactive: 0.023 | inactive: -0.015 | inactive: 0 | inactive: -0.059 | inactive: 0.014 | inactive: 0.02 | inactive: -0.029 | inactive: -0.142 | inactive: -0.002 | inactive: -0.007 | inactive: 0.007 | inactive: -0.032
CNN1 (UniProt P51911) | inactive: -0.017 | inactive: -0.023 | inactive: 0.007 | inactive: 0.029 | inactive: 0.035 | inactive: 0.08 | inactive: -0.12 | inactive: -0.028 | inactive: 0.082 | inactive: -0.023 | inactive: -0.052 | inactive: 0.011 | inactive: 0.017 | inactive: -0.017 | inactive: -0.035 | inactive: 0.002 | inactive: -0.087 | inactive: -0.021 | inactive: -0.056 | inactive: 0.008
COA7 (UniProt Q96BR5) | inactive: -0.019 | inactive: 0.008 | inactive: 0.008 | inactive: -0.025 | inactive: -0.036 | inactive: -0.021 | inactive: -0.114 | inactive: -0.022 | inactive: -0.055 | inactive: 0.02 | inactive: 0.065 | inactive: -0.037 | inactive: 0.082 | inactive: -0.087 | inactive: 0.028 | inactive: 0.053 | inactive: 0.021 | inactive: -0.041 | inactive: 0.01 | inactive: 0.013
COPB2 (UniProt P35606) | inactive: -0.01 | inactive: 0.041 | inactive: -0.003 | inactive: -0.028 | inactive: -0.006 | inactive: 0.016 | inactive: -0.021 | inactive: 0.006 | inactive: 0.002 | inactive: -0.01 | inactive: -0.013 | inactive: -0.011 | inactive: -0.015 | inactive: -0.065 | inactive: 0.02 | inactive: 0.024 | inactive: 0.002 | inactive: 0.012 | inactive: -0.039 | inactive: 0.028
CPT1A (UniProt P50416) | active: 0.407 | inactive: 0.261 | inactive: 0.004 | inactive: -0.053 | inactive: 0.113 | inactive: 0.036 | inactive: 0.078 | inactive: -0.014 | inactive: -0.051 | inactive: 0.031 | inactive: 0.013 | inactive: 0.014 | inactive: 0.114 | inactive: 0.009 | inactive: 0.021 | inactive: 0.057 | inactive: 0.037 | inactive: 0.038 | inactive: -0.056 | inactive: -0.027
CNOT1 (UniProt A5YKK6) | inactive: 0.007 | inactive: -0.06 | inactive: 0.006 | inactive: 0 | inactive: -0.034 | inactive: -0.005 | inactive: 0.038 | inactive: 0 | inactive: 0.016 | inactive: -0.004 | inactive: -0.013 | inactive: -0.011 | inactive: -0.01 | inactive: -0.04 | inactive: -0.002 | inactive: -0.045 | inactive: -0.021 | inactive: 0.013 | inactive: -0.029 | inactive: 0.05
COX6A1 (UniProt P12074) | inactive: 0.006 | inactive: 0.009 | inactive: 0.14 | inactive: 0.023 | inactive: 0.124 | inactive: -0.002 | inactive: 0.03 | inactive: -0.291 | inactive: 0.037 | inactive: 0.128 | inactive: 0.025 | inactive: -0.093 | inactive: -0.091 | inactive: -0.022 | inactive: 0.038 | inactive: 0.215 | inactive: 0.009 | inactive: 0.039 | inactive: 0.177 | inactive: -0.07
CPSF6 isoform 2 (UniProt Q16630) | inactive: -0.071 | inactive: 0.026 | inactive: -0.024 | inactive: -0.015 | inactive: -0.001 | inactive: 0.032 | inactive: -0.015 | inactive: -0.009 | inactive: 0.001 | inactive: 0.009 | inactive: 0.005 | inactive: 0 | inactive: 0.054 | inactive: -0.017 | inactive: 0.001 | inactive: -0.108 | inactive: 0.008 | inactive: 0 | inactive: 0.022 | inactive: 0.008
CPSF2 (UniProt Q9P2I0) | inactive: -0.027 | inactive: -0.059 | inactive: 0.029 | inactive: 0.033 | inactive: -0.033 | inactive: 0.009 | inactive: 0.107 | inactive: -0.053 | inactive: -0.02 | inactive: -0.003 | inactive: -0.008 | inactive: -0.009 | inactive: -0.011 | inactive: 0.028 | inactive: 0.009 | inactive: -0.03 | inactive: 0.001 | inactive: -0.005 | inactive: -0.121 | inactive: 0.029
COPA isoform 2 (UniProt P53621) | inactive: 0.014 | inactive: -0.011 | inactive: -0.007 | inactive: -0.011 | inactive: 0.016 | inactive: 0.002 | inactive: 0.02 | inactive: 0.008 | inactive: -0.002 | inactive: -0.02 | inactive: -0.004 | inactive: -0.005 | inactive: -0.015 | inactive: 0.006 | inactive: 0.01 | inactive: -0.021 | inactive: -0.001 | inactive: 0.035 | inactive: -0.014 | inactive: -0.01
CORO7 isoform 3 (UniProt P57737) | inactive: 0.023 | inactive: -0.087 | inactive: -0.008 | inactive: 0.028 | inactive: 0.007 | inactive: -0.008 | inactive: 0.114 | inactive: 0.007 | inactive: -0.069 | inactive: -0.047 | inactive: 0.009 | inactive: -0.016 | inactive: -0.063 | inactive: 0.06 | inactive: 0.004 | inactive: -0.119 | inactive: 0.005 | inactive: 0.013 | inactive: 0.001 | inactive: -0.067
